Consider one substance from publication PMC11059309.

The chains behind the UniProt entries cited, without tags or fusion partners.
UniProt P08908: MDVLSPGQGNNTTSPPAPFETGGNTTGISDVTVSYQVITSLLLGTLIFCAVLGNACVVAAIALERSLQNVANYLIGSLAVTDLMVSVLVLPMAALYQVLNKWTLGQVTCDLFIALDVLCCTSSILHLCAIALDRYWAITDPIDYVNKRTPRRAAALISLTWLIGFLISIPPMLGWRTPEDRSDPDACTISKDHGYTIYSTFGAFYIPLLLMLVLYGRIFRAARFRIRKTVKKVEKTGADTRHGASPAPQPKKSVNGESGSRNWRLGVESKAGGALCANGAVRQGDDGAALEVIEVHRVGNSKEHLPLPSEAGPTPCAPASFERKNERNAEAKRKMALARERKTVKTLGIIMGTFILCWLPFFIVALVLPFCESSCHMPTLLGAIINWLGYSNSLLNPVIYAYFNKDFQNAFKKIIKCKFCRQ
UniProt P32121: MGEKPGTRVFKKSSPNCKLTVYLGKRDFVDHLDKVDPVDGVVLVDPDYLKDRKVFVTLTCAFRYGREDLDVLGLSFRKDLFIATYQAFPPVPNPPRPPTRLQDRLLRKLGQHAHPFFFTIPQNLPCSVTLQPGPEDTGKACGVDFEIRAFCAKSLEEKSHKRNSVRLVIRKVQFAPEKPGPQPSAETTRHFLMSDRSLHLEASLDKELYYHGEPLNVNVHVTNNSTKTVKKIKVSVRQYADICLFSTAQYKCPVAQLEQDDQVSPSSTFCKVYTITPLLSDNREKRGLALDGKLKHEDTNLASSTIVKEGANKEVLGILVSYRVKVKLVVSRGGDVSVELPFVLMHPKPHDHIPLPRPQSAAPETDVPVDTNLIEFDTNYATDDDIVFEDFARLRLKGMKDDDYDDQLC

No constants are given. Whether binding was seen depends on the method and setting. Binding seen in cells or lysates may run through a third protein. Some entries that bind do so weakly or less than the wild type.

The experiment has as its target 5-HT1A receptor (serotonin 1A receptor) (UniProt P08908). Nature of the experiment: split reporter; NanoBiT β-arrestin 2 recruitment in living HEK 293 cells transiently transfected with 5HT1a-LgBiT and SmBiT-β-Arrestin2; HBSS/HEPES with 2.5 µM coelenterazine h, reader at 30 °C; stimulation with 5.0 µM serotonin, luminescence for 60 min, AUC relative to vehicle-treated control; cells pretreated 48 h or 72 h with water soluble cholesterol (7.0 µM), Ze 117 (25.0 µg/ml), simvastatin (1.0 µM), dexamethasone (1.0 µM) or dexamethasone + Ze 117.

For the substance “β-arrestin 2 (from UniProt P32121 1-409)”, the binding entry was “binds”.
